From PMC5524641
These are yes or no findings as the source states them, for the method shown. Binding seen in cells or lysates may run through a third protein. Some binding calls cover weakened binding; strength is not graded here.

By UniProt entry, the sequences of proteins in these tests, tags left out. Residues count along the entry.
p62ZZ-GST (93-residue fragment, residues 83–175) (Q13501, residues 83-175): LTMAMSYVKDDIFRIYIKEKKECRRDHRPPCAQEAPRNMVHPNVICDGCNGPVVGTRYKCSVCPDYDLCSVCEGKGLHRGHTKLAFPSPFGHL

What was measured:
[1] = target: Y-peptide (Y-I-F-S-T-I-E-G-R-T-Y-K-biotin); assay: pull-down; […]) in 0.05% Tween 20, 10% glycerol, 0.2 M KCl, 20 mM HEPES pH 7.9; […]; only the target purified
[2] = target: L-peptide (L-I-F-S-T-I-E-G-R-T-Y-K-biotin); assay: as above
[3] = target: Y-peptide (Y-I-F-S-T-I-E-G-R-T-Y-K-biotin); assay: pull-down; X-peptide pulldown assay using 93-residue p62ZZ-GST
[4] = target: L-peptide (L-I-F-S-T-I-E-G-R-T-Y-K-biotin); assay: as above

Row | Substance | binding [1] | binding [2] | binding [3] | binding [4]
1 | endogenous p62 (HEK293 cells) (from UniProt Q13501 1-440) | binds | no binding | – | –
2 | p62ZZ-GST (93-residue fragment, residues 83–175) (from UniProt Q13501 83-175) (domain or fragment) | – | – | binds | no binding
